Among the data in PMC3675111 are binding values, retold here.

The chains behind the UniProt entries cited, without tags or fusion partners. Where a name states a change or a piece, a line headed by the entry shows the natural chain unless it says otherwise.
UniProt P05555: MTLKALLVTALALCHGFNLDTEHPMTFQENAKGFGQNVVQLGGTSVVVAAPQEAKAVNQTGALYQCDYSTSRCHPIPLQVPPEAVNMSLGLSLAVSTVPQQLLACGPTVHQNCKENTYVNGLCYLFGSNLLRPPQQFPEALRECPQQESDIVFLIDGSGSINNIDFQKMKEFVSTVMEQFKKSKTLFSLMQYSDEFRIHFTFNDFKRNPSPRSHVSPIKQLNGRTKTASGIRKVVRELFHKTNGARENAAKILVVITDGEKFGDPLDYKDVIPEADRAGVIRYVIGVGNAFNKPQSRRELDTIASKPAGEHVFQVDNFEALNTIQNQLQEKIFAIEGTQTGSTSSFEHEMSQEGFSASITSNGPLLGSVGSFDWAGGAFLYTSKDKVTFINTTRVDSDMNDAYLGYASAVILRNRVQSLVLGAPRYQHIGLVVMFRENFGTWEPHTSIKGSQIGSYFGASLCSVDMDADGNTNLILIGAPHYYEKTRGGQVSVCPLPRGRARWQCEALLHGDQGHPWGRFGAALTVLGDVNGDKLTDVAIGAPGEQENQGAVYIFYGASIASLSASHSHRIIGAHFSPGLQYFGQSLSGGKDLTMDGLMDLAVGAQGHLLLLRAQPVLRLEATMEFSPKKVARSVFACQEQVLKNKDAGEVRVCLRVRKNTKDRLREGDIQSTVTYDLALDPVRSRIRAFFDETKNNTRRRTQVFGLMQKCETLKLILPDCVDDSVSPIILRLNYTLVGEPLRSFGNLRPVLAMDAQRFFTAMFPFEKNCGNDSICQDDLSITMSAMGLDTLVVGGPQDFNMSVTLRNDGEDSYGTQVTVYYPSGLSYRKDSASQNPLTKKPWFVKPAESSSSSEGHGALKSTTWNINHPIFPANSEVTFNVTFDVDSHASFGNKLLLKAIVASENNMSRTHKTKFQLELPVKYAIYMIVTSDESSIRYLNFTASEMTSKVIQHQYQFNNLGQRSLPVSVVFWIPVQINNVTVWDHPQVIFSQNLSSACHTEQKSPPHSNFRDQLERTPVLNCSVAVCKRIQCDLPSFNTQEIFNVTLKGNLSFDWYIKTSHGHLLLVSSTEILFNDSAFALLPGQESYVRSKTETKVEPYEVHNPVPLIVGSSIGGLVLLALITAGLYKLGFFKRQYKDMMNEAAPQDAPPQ

These are yes or no findings as the source states them, for the method shown. In cells and extracts the contact can be indirect. Some binding calls cover weakened binding; strength is not graded here.

The experiment concerns the target T1, protein kinase C zeta (PKCζ) (mouse (endogenous in peritoneal neutrophils)) (UniProt Q02956).
T1 sequence: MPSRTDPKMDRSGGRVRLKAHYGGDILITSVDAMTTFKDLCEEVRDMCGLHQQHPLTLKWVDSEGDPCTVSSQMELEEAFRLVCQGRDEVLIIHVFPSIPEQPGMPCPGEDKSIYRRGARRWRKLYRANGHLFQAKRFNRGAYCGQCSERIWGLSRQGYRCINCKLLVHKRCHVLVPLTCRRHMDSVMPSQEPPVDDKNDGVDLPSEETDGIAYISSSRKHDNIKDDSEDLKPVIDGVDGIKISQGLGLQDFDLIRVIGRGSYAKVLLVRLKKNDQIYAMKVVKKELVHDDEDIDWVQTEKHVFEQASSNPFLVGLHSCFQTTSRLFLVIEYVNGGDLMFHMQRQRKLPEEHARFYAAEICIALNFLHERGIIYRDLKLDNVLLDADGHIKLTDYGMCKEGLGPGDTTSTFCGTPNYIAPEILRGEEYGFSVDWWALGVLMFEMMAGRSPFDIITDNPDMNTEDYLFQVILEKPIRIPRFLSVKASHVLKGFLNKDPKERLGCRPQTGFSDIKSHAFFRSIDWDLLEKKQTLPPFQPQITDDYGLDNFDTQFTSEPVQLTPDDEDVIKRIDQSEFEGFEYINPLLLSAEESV
The experiment can be described thus: co-IP; lysates (RIPA buffer) of mouse peritoneal neutrophils (WT or CD40-/-), unstimulated or stimulated with rm-CD40L 100 ng/ml for 5, 15, 30 min; immunoprecipitated overnight at 4°C with anti-PKCζ antibody, protein A beads; immunoblot with anti-Mac-1 (CD11b) antibody.

Take “β2 integrin Mac-1 (CD11b/CD18) (from UniProt P05555 17-1153; P11835 24-771) (complex)”: the binding result was “binds”.
